Source: PubChem BioAssay AID1347423 (Functional Genomics Laboratory (NCATS/FGL), 2020)
Screen size: about 52,000 sequences; about 210 (0.4%) were called active.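 How the source made its calls: active means gene whose silencing raises cell survival under the drug, median off-target-corrected z-score across its silencing RNAs 2 or more; inactive means the rest.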 The list shows a part of the results.

Test: Resistance to Poly (ADP-Ribose) Polymerase inhibitor: Gene Identification via Genome-wide siRNA Screen
Settings: mouse BRCA2 R2336H ES cells, olaparib, CellTiter-Glo viability; stronger effect = higher value
Outline: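 Genome-wide siRNA screen (3 siRNAs/gene, 20 nM) in mouse ES cells carrying hypomorphic BRCA2 R2336H; olaparib 500 nM added 48 h post-transfection, CellTiter-Glo viability 72 h later. Normalized to plate-median negative control; MAD z-scores, gene median, seed-adjusted.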

| Sequence | z-score |
| --- | --- |
| CCCAAGAAUACCAGUGUCGTT against Sdk2 | inactive: 2.22 |
| GGGCGAACAGGACAAUUAUTT against Surf5 | inactive: -0.645 |
| GGAGAGAACGCAGAGAUACTT against 1700019N19Rik | inactive: 0.706 |
| GGGUUAGGGUAUAAAAGAUTT against Kcna7 | inactive: -2.23 |
| CCCACAAAGAUAGGCCGUGTT against C6.1AL | inactive: -2.06 |
| GCCUGGAACGAACUCUUUUTT against Zfp297b | inactive: -0.322 |
| GGCCAUAGCCUAGCAUAACTT against Wdr4 | inactive: 1.57 |
| GCUAGUCGACAAUUAUUACTT against Pcdhga1 | inactive: 1.07 |
| GGAGCCUUGGUCCUUUGAUTT against 1500031H04Rik | inactive: -1.58 |
| GCUUCUUCUAUUCAUCAUUTT against Olfr933 | inactive: -0.392 |
| GGGUCCCUUUGUCAGUAUGTT against 9230110C19Rik | inactive: 0.838 |
| GGAUUCAGCCCUGGUUUCATT against Wbp1 | inactive: 0.509 |
| GCUUUGAUGACAAAAGUUCTT against Prdx6 | inactive: 0.0202 |
| CCUUGACCGAGGAAGACAATT against Abpa | inactive: -0.511 |
| GGAGGGACAUUAAACUAUUTT against Chchd3 | inactive: -0.187 |
| CGUGAACUUUCAGAGCAGGTT against BC011248 | inactive: -0.308 |
| GCUAAGGUCUUACUCCUGGTT against Cdca4 | inactive: -0.906 |
| CGGCCUUCUCUACAAAUCATT against 1110032A13Rik | inactive: 1.23 |
| GCUCAGCGACUGGCAAAGATT against Mrpl46 | inactive: -0.893 |
| GGUAUUCGAGACCUGAUUATT against 6030440P17Rik | inactive: -1.35 |
| GGUCUUGAGGUCAUUCUCCTT against Il24 | inactive: 0.301 |
| GGUUGGUAGGAUGGACAAGTT against Rab11b | inactive: -0.391 |
| GGCUCUCUGAGGAAUCUAGTT against 2310009N05Rik | inactive: -0.229 |
| GGAAAUCUUGGCAGUUUCCTT against Ckn1 | inactive: 0.5 |
| GGGCAAAUUAGAGACCAAGTT against B830017A01Rik | inactive: -0.595 |
| GGAGGUAGAUGAACUUUAATT against Syt13 | inactive: 1.22 |

| Sequence | z-score |
| --- | --- |
| GGCAUUGCUUCAUGGCUCUTT against Tmprss5 | inactive: 0.462 |
| CCUUCAGUGGUUUGAACCGTT against Dnd1 | inactive: 2.01 |
| CCAAGUAGAUUGUACCUAUTT against Fuca1 | inactive: 0.0975 |
| GCCAAAUUAAGUAUCUUGATT against Lamp2 | inactive: -0.118 |
| GGGUGGCUAUGGACAAAAATT against Arl12 | inactive: -1.65 |
| CCAGUAAUUAGCAUGUACGTT against Olfr1370 | inactive: 0.97 |
| GGGACUUGGUUCAAACGACTT against Tbx3 | inactive: 1.11 |
| GGCAUAAUCUUCCAUUGUCTT against C130068N17Rik | inactive: -1.38 |
| GGUGGAAUAUAGAAGUUUCTT against Rgnef | inactive: 0.16 |
| GGUAGCUAUUAAAGAAUCCTT against AW209491 | inactive: 0.621 |
| GGAUCCUUUGGUUAUAAGATT against Nav1 | inactive: 0.307 |
| CCUAAAAGACUUCAUCCGUTT against Kcnh8 | inactive: 0.718 |
| GGACAAGAUUGUAUCUGCATT against Olfr1507 | inactive: -0.834 |
| GCCUUUAACAGCUCUUAAUTT against A430041E03 | inactive: -0.755 |
| GCCAGUGACUGUCCUUACATT against Dag1 | inactive: 0.206 |
| GGCAACCAAAACGAUACAATT against Entpd7 | inactive: -0.362 |
| GGAGAAACGCAUCAACCCUTT against Pou2f2 | inactive: 1.99 |
| CCUAUUUUUGCCCUAUAGUTT against 1700019F09Rik | inactive: 1.89 |
| GGAGAAGCUGAAGACCAAGTT against Rpl35 | inactive: 0.322 |
| GCAUUGUGCUCAAAUCUGCTT against C1qtnf7 | inactive: -0.467 |
| GCGAGAUGUAGUAACAGAGTT against Adam15 | inactive: -0.847 |
| GGUCCAAGCUUAAAUUUGUTT against Mrpl16 | inactive: 0.0306 |
| GGACUUCUAGAGAACUUGUTT against 2900092C05Rik | inactive: 1.96 |
| GACCGGUCAAGUUUUUUCGTT against Pfn1 | inactive: -0.746 |
| GGAGUUGUGAAUUUCUCGUTT against Sri | inactive: 0.905 |
| GGUUUUAUUUGGGAUUAGCTT against Zfp289 | inactive: 0.161 |

In another format: results already given
Sequence | z-score
GGGACUUGGUUCAAACGACTT against Tbx3 | inactive: 1.11
GGAGAAACGCAUCAACCCUTT against Pou2f2 | inactive: 1.99
GCGAGAUGUAGUAACAGAGTT against Adam15 | inactive: -0.847
GACCGGUCAAGUUUUUUCGTT against Pfn1 | inactive: -0.746

Later entries

| Sequence | z-score |
| --- | --- |
| GGUGAUAAAGCUAUGUAUUTT against Ctgf | inactive: 0.649 |
| CCCACAAGUUUCAUCUGACTT against 4933437N03Rik | inactive: -0.671 |
| GGAGUCCAAGUUUAAGGAATT against 4930522H14Rik | inactive: -0.171 |
| GGAUUGAGGCUAAGUAGCGTT against Tnfrsf13b | inactive: -0.131 |
| GGGAAAAUGUGGGAAUUUUTT against C730042F17Rik | inactive: -0.172 |
| GGCCCACAAAAGGUAUGAATT against AW551984 | inactive: 1.75 |
| GGACAUUCGGCUAUAGCACTT against P2ry2 | inactive: 0.631 |
| GGAAAUCACUGGUUUUCAATT against Asah2 | inactive: -0.116 |
| GGUGAUGCUAAGAAGUUACTT against Rnf122 | inactive: -0.146 |
| CCUCCAGAUAACAAAUGCATT against Dlx3 | inactive: -0.365 |
| GGAUCCGUGAAUGUAGUCATT against Rapgef4 | inactive: -0.497 |
| GCGAACUUUUACAUUUCGATT against Gmpr | inactive: 1.19 |
| GGAAAAAGUGACAUUUUCUTT against AW551984 | inactive: 0.934 |
| GGUUUUACAUCUAUGGAGUTT against 4933417A18Rik | inactive: 1.39 |
| GCCUUACCAACUUCAGUUATT against Rps27l | inactive: -1.07 |
| GGUGGUGUUUGAAAAGUGUTT against Mst1 | inactive: -1.94 |
| GGCCAGGAUAGCACUUCUUTT against 1110007C02Rik | inactive: -0.277 |
| GGUUUUUUUCUUCACAGGUTT against Olfr127 | inactive: 0.486 |
| CGAAUGAAAGAAUACCGUGTT against Dnajc6 | inactive: -0.482 |
| GGAAAAACUCCCUCGGUACTT against Rps11 | inactive: -3 |
| GAAAGUGUUCAGGAAGCUGTT against Klra19 | inactive: 0.338 |
| GGAAGGGACUGAUCGGUACTT against Igsf8 | inactive: -0.15 |
| CCCACUGGUUUGUUUAAACTT against Dtr | inactive: 0.614 |
| GGGUAUCCAGUAUUUGAUCTT against Iqsec2 | inactive: -0.162 |
| GGCAGCAUGGAGAACGAGATT against Camk1 | inactive: -0.509 |
| GGAAACAUUAGAAUCUUGUTT against 5830457H20Rik | inactive: 0.663 |

| Sequence | z-score |
| --- | --- |
| GGGCAUUUCUUUGUCUAUCTT against Nme1 | inactive: -0.736 |
| GGUAGCAGACAGCUACCCUTT against Tnfsf15 | inactive: 0.579 |
| GGUGAAAAAGGUUAGAAAATT against Wasf3 | inactive: -0.0953 |
| CCCUUUUACUGAGAAUAAUTT against Map2k1ip1 | inactive: 0.208 |
| GGAAAACCAGAAAGAAUUUTT against Crnkl1 | inactive: -0.0852 |
| GGACUAAAAGAUUGGUGGUTT against Polr2k | inactive: -2.6 |
| GGCUUCUUUUCACAAAUAGTT against Nipsnap1 | inactive: -0.0452 |
| GGCUUAUACAAGGUGCUCATT against Olfr661 | inactive: -0.887 |
| GCUCUUCUCAGAGUGUGUATT against Rwdd3 | inactive: 0.191 |
| GGAGACGAUCCAAGAAGAATT against 2310009E07Rik | inactive: 1 |
| GCUUUGUGGAGUUCAACCUTT against Kcnh6 | inactive: 0.256 |
| GGUGCAUGCACUGAAGAAGTT against Mpv17 | inactive: -0.984 |
| GCAGCUGGAUAUCAUAAAATT against 5033413D22Rik | inactive: 0.284 |
| CCUUCUUUAAACCUCCAUGTT against Vegfc | inactive: -0.826 |
| GCCUUAGGCAUUUAGAUUUTT against Zbed4 | inactive: -0.495 |
| GGGAACCGCUUAUAUGUCCTT against Tbx21 | inactive: 0.452 |
| GCAGUCUUGGAAAUAACGATT against 4930540L03Rik | inactive: -0.256 |
| UUCCAUUCAUAUGUCUUGATT against Tas2r109 | inactive: -1.65 |
| GCACAGUAACCUAAAAUACTT against 5730590C14Rik | inactive: -0.0934 |
| CGACUAGGCAUCUAUGAAGTT against Kremen2 | inactive: 0.111 |
| CCCUGUAUCAUGCACGUAATT against Kcnj4 | inactive: -0.327 |
| GCCGUGUGGUAAUAGUGUCTT against 2610209N15Rik | inactive: 0.284 |
| GGAAGCACAAGUGCCACUATT against Klf13 | inactive: 0.541 |
| GAUCAUCGGCAUUUUGAACTT against Il4 | inactive: 0.0896 |
| GGCUGACUAUGCUGCCACATT against Npdc1 | inactive: -1.83 |
| CGAGCUUGUUUUUGGAAGUTT against Urp | inactive: 0.286 |
